Source: patent publication US20070248607A1, “NEGATIVE IMMUNOMODULATION OF IMMUNE RESPONSES BY NKG2D-POSITIVE CD4+ CELLS” (priority 2005, published 2007)
These are yes or no findings as the source states them, for the method shown. Some binding calls cover weakened binding; strength is not graded here.

T1: ERP5 on the cell surface of tumor cells (U266, Hela, A375) (UniProt Q15084 20-440, limits assumed)
T1 construct: whole, on cells; Endogenous protein of tumor cell lines; also called disulfide isomerase-related protein P5; surface ERP5
T1 sequence (looked up): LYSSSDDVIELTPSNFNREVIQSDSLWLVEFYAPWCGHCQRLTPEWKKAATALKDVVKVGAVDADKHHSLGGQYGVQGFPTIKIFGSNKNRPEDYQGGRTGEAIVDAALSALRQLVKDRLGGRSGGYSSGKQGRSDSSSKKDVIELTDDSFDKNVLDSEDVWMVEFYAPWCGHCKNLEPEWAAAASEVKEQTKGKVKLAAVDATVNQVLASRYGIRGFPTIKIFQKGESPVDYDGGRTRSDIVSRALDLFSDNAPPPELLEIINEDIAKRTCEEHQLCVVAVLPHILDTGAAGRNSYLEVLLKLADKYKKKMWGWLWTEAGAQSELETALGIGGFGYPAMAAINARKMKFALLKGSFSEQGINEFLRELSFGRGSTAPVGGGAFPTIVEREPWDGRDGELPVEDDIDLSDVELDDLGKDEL

T2: recombinant soluble MICA (rsMICA), unglycosylated, produced in bacteria; ectodomain-only MICA (human) (UniProt Q29983)
T2 sequence: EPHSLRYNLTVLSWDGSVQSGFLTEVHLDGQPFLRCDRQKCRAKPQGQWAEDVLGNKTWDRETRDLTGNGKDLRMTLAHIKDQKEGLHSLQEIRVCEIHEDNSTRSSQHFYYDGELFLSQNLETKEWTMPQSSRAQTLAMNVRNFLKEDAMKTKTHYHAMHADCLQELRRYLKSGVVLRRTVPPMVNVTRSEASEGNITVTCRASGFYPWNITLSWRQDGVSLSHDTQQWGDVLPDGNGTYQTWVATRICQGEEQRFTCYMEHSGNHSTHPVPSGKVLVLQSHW


What was measured:
[1] = molecular target: T1, ERP5 on the cell surface of tumor cells …; experiment: MICA bead purification from surface-biotinylated cells, immunoblot
[2] = molecular target: T2, recombinant soluble MICA (rsMICA), unglycosylated, produced in bacteria; ectodomain-only MICA (human); experiment: incubation of purified proteins, non-reducing SDS-PAGE
[3] = molecular target: T2, recombinant soluble MICA (rsMICA), unglycosylated, produced in bacteria; ectodomain-only MICA (human); experiment: incubation of purified proteins, non-reducing SDS-PAGE; resolved by β-ME

Row | binding [1] | binding [2] | binding [3] | Binder
1 | binds | – | – | MICA-conjugated sepharose beads (ligand, coupled to sepharose beads) EPHSLRYNLTVLSWDGSVQSGFLTEVHLDGQPFLRCDRQKCRAKPQGQWAEDVLGNKTWDRETRDLTGNGKDLRMTLAHIKDQKEGLHSLQEIRVCEIHEDNSTRSSQHFYYDGELFLSQNLETKEWTMPQSSRAQTLAMNVRNFLKEDAMKTKTHYHAMHADCLQELRRYLKSGVVLRRTVPPMVNVTRSEASEGNITVTCRASGFYPWNITLSWRQDGVSLSHDTQQWGDVLPDGNGTYQTWVATRICQGEEQRFTCYMEHSGNHSTHPVPSGK
2 | – | binds | binds | ERP5 fragment 1-118 C39S active site mutant (enzyme, UniProt Q15084 20-137, looked up, Position 39 counts on the mature protein; not shown: N-terminal hexahistidine tract) LYSSSDDVIELTPSNFNREVIQSDSLWLVEFYAPWCGHSQRLTPEWKKAATALKDVVKVGAVDADKHHSLGGQYGVQGFPTIKIFGSNKNRPEDYQGGRTGEAIVDAALSALRQLVKD
